Laboratory results from paper PMC9178409.
No constants are given. Whether binding was seen depends on the method and setting. For some assays here: In cells and extracts the contact can be indirect. Some binding calls cover weakened binding; strength is not graded here.

T1: Fbxo7 (endogenous, isoforms 1 and 2) (human (endogenous in CCRF-CEM)) (UniProt Q9Y3I1)
T1 sequence: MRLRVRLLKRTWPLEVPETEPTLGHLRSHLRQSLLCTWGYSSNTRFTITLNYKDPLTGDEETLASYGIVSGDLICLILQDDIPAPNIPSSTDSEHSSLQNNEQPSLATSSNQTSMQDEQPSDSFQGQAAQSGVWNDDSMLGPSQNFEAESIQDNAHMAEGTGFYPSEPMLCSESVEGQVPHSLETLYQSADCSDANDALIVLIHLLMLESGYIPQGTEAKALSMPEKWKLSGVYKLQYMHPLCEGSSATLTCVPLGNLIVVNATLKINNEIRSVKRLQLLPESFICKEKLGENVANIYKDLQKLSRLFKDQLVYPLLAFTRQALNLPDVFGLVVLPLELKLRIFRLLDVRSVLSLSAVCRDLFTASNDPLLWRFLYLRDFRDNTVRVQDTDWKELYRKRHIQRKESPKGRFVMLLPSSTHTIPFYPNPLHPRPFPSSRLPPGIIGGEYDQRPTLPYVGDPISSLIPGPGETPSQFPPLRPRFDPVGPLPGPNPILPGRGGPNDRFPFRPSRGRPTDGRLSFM

T2: Fbxo7 aa 334-522 (yeast two-hybrid bait) (UniProt Q9Y3I1)
T2 sequence: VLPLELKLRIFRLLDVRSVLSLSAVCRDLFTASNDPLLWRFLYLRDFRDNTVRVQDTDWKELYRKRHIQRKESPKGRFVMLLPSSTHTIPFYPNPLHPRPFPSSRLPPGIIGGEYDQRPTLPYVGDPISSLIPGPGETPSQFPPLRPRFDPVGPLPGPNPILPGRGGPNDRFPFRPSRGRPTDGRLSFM


Experiments:
[1] = molecular target: T1, Fbxo7 (endogenous, isoforms 1 and 2) (human (endogenous in CCRF-CEM)); assay: co-IP; endogenous Fbxo7 immunoprecipitated from CCRF-CEM lysate (Tween Lysis Buffer, 4°C, Protein A/G agarose), immunoblot for PFKP; also from cells treated for 24 h with DMSO, 1 μM palbociclib or 0.1 μM of either of two Cdk6 PROTACs
[2] = molecular target: T2, Fbxo7 aa 334-522 (yeast two-hybrid bait); assay: two-hybrid; yeast two-hybrid screen with aa 334-522 of Fbxo7 as bait

binding [1] | binding [2] | Binder
binds | – | PFKP (endogenous) (enzyme, UniProt Q01813 1-784) MDADDSRAPKGSLRKFLEHLSGAGKAIGVLTSGGDAQGMNAAVRAVVRMGIYVGAKVYFIYEGYQGMVDGGSNIAEADWESVSSILQVGGTIIGSARCQAFRTREGRLKAACNLLQRGITNLCVIGGDGSLTGANLFRKEWSGLLEELARNGQIDKEAVQKYAYLNVVGMVGSIDNDFCGTDMTIGTDSALHRIIEVVDAIMTTAQSHQRTFVLEVMGRHCGYLALVSALACGADWVFLPESPPEEGWEEQMCVKLSENRARKKRLNIIIVAEGAIDTQNKPITSEKIKELVVTQLGYDTRVTILGHVQRGGTPSAFDRILASRMGVEAVIALLEATPDTPACVVSLNGNHAVRLPLMECVQMTQDVQKAMDERRFQDAVRLRGRSFAGNLNTYKRLAIKLPDDQIPKTNCNVAVINVGAPAAGMNAAVRSAVRVGIADGHRMLAIYDGFDGFAKGQIKEIGWTDVGGWTGQGGSILGTKRVLPGKYLEEIATQMRTHSINALLIIGGFEAYLGLLELSAAREKHEEFCVPMVMVPATVSNNVPGSDFSIGADTALNTITDTCDRIKQSASGTKRRVFIIETMGGYCGYLANMGGLAAGADAAYIFEEPFDIRDLQSNVEHLTEKMKTTIQRGLVLRNESCSENYTTDFIYQLYSEEGKGVFDCRKNVLGHMQQGGAPSPFDRNFGTKISARAMEWITAKLKEARGRGKKFTTDDSICVLGISKRNVIFQPVAELKKQTDFEHRIPKEQWWLKLRPLMKILAKYKASYDVSDSGQLEHVQPWSV
– | binds | 6-PFKP aa 385-784 (yeast two-hybrid prey) (domain or fragment, UniProt Q01813 385-784) RSFAGNLNTYKRLAIKLPDDQIPKTNCNVAVINVGAPAAGMNAAVRSAVRVGIADGHRMLAIYDGFDGFAKGQIKEIGWTDVGGWTGQGGSILGTKRVLPGKYLEEIATQMRTHSINALLIIGGFEAYLGLLELSAAREKHEEFCVPMVMVPATVSNNVPGSDFSIGADTALNTITDTCDRIKQSASGTKRRVFIIETMGGYCGYLANMGGLAAGADAAYIFEEPFDIRDLQSNVEHLTEKMKTTIQRGLVLRNESCSENYTTDFIYQLYSEEGKGVFDCRKNVLGHMQQGGAPSPFDRNFGTKISARAMEWITAKLKEARGRGKKFTTDDSICVLGISKRNVIFQPVAELKKQTDFEHRIPKEQWWLKLRPLMKILAKYKASYDVSDSGQLEHVQPWSV
